The text below walks through data of the supplement of paper PMC10398353.

Values joined by “and” are separate entries in the source; they are usually repeats but may differ in a detail not shown here. Equal entries are not always repeated. Structures can show the parent of a compound that is named as a salt. ± gives the standard deviation of the averaged measurements. The list shows a part of the results. The data scatter; read single values as rough.

This assay concerns Salmonella enterica serovar Typhimurium ST313 D23580. Kind of assay: normalized bacterial growth (OD600 20 h minus 0 h, interquartile-mean normalized) (fraction of plate interquartile mean); higher = more bacterial growth (less inhibition). The following applies: LPM (pH 5.8, low phosphate, low Mg2+), concentration: 10 µM, temperature: 37 °C.
On to `C[C@@H]1O[C@@H](O[C@H]2C[C@@H](O)[C@]3(CO)[C@H]4[C@H](O)C[C@]5(C)[C@@H](C6=CC(=O)OC6)CC[C@]5(O)[C@@H]4CC[C@]3(O)C2)[C@H](O)[C@H](O)[C@H]1O`, for which the normalized bacterial growth is 0.506 and 1.

Take `C[C@@H]1O[C@@H](O[C@H]2C[C@@H](O)[C@]3(CO)[C@H]4[C@H](O)C[C@]5(C)[C@@H](C6=CC(=O)OC6)CC[C@]5(O)[C@@H]4CC[C@]3(O)C2)[C@H](O)[C@H](O)[C@H]1O` [Strophantine octahydrate]: the normalized bacterial growth turned out to be 1.1.

Consider `Clc1cc(I)cc(Cl)c1NC1=NCCN1` [p-Iodoclonidine hydrochloride], for which the normalized bacterial growth was found to be 0.693.

Compound `C[C@@H](N)Cc1cnc[nH]1` ["Histamine, R(-)-alpha-methyl-, dihydrochloride"] registered a normalized bacterial growth of 1.16.

The compound `COc1ccc2c3c([nH]c2c1)C(C)=NCC3` [Harmaline hydrochloride dihydrate] registered a normalized bacterial growth of 0.855.

The compound `COc1ccc2c3c([nH]c2c1)C(C)=NCC3` yielded a normalized bacterial growth of 1.22.

Compound `CC1(C)C2C[C@@H](O)[C@]3(C)C(CC[C@@]4(C)[C@H](c5ccoc5)OC(=O)[C@H]5O[C@]543)[C@@]2(C)[C@@H](O)C[C@H]1O` (some centres not stated) came in with a normalized bacterial growth of 0.927.

Consider `[N-]=[N+]=CC(=O)OC[C@H](N)C(=O)O`, for which the normalized bacterial growth turned out to be 0.684.

Consider `Cc1cc(O)c2c(=O)c3c(O)cc(O)c4c5c(O)cc(O)c6c(=O)c7c(O)cc(C)c8c1c2c(c34)c(c78)c65`, for which the normalized bacterial growth came out at 1.41.

In turn, `CN(C)C(=O)Oc1cc(OC(=O)N(C)C)cc(C(O)CNC(C)(C)C)c1` (configuration not stated) yielded a normalized bacterial growth of 0.871.

In the case of `CN(C(=O)Cc1ccc(Cl)c(Cl)c1)C(CN1CCCC1)c1cccc(OCC(=O)O)c1` (configuration not stated) ["ICI 204,448 hydrochloride"], the normalized bacterial growth stood at 0.981.

`C=C(C)[C@@]12O[C@@]3(c4ccccc4)O[C@@H]1[C@@H]1[C@@H]4O[C@]4(CO)[C@@H](O)[C@]4(O)C(=O)C(C)=C[C@H]4[C@@]1(O3)[C@H](C)[C@H]2OC(=O)/C=C/C=C/c1ccccc1` showed a normalized bacterial growth of 0.669.

`NCCc1ccc(O)cc1`: the normalized bacterial growth amounted to 0.97.

Compound `NCCc1ccc(O)cc1` [4-Hydroxyphenethylamine hydrochloride] returned a normalized bacterial growth of 1.32.

Regarding `C[N+]1(C)[C@@H]2C[C@@H](OC(=O)[C@H](CO)c3ccccc3)C[C@H]1[C@@H]1O[C@@H]12` [(-)-Scopolamine methyl bromide], the normalized bacterial growth stood at 1.13.

In turn, `C[N+]1(C)[C@@H]2C[C@@H](OC(=O)[C@H](CO)c3ccccc3)C[C@H]1[C@@H]1O[C@@H]12` gave a normalized bacterial growth of 0.892.

In turn, `C[C@]12CC[C@H](O)C[C@@H]1CC[C@@H]1[C@@H]2CC[C@]2(C)C(=O)CC[C@@H]12` [Epiandrosterone] showed a normalized bacterial growth of 0.9.

As for `C[C@]12CC[C@H](O)C[C@@H]1CC[C@@H]1[C@@H]2CC[C@]2(C)C(=O)CC[C@@H]12`, the normalized bacterial growth was found to be 0.829.

Compound `C[C@@H]1OC(=O)[C@H]2C[C@H]3CCCC[C@@H]3[C@@H](/C=C/[C@H]3CCC[C@H](C)N3C)[C@@H]12` had a normalized bacterial growth of 1.2.

Regarding `CCn1cc(C(=O)O)c(=O)c2cc3c(cc21)OCO3` [Oxolinic acid], the normalized bacterial growth turned out to be 0.0836.

Compound `CO[C@H]1C[C@H](O[C@H]2CC[C@]3(C=O)[C@H]4CC[C@]5(C)[C@@H](C6=CC(=O)OC6)CC[C@]5(O)[C@@H]4CC[C@]3(O)C2)O[C@H](C)[C@H]1O` had a normalized bacterial growth of 0.989.

Regarding `C[N+]1(C)CCN(c2ccccc2)CC1` ["1,1-Dimethyl-4-phenyl-piperazinium iodide"], the normalized bacterial growth worked out at 1.18.

In turn, `CCC1(c2ccc(N)cc2)CCC(=O)NC1=O` (configuration not stated) [()-p-Aminoglutethimide] came in with a normalized bacterial growth of 0.977.

`C[C@H](Cc1ccc2c(c1)OC(C(=O)O)(C(=O)O)O2)NC[C@H](O)c1cccc(Cl)c1` returned a normalized bacterial growth of 1.15.

The compound `CC1=C[C@]23C(=O)[C@@H](C=C(CO)[C@@H](O)[C@]2(O)[C@H]1O)[C@H]1[C@@H](C[C@H]3C)C1(C)C` came in with a normalized bacterial growth of 1.16.

Compound `CC[C@@]1([C@@H]2O[C@@H]([C@H]3O[C@@](O)(CO)[C@H](C)C[C@@H]3C)C[C@@H]2C)CC[C@H]([C@]2(C)CC[C@]3(C[C@H](O)[C@@H](C)[C@@H]([C@@H](C)[C@@H](OC)[C@H](C)C(=O)O)O3)O2)O1` registered a normalized bacterial growth of 0.841.

`CC[C@@]1([C@@H]2O[C@@H]([C@H]3O[C@@](O)(CO)[C@H](C)C[C@@H]3C)C[C@@H]2C)CC[C@H]([C@]2(C)CC[C@]3(C[C@H](O)[C@@H](C)[C@@H]([C@@H](C)[C@@H](OC)[C@H](C)C(=O)O)O3)O2)O1` [Monensin sodium salt] returned a normalized bacterial growth of 1.2.

For the compound `CCCN1CCC[C@H](c2cccc(O)c2)C1` [R(+)-3PPP hydrochloride], the normalized bacterial growth amounted to 1.16.

As for `NC(=O)COc1c(F)cc(SCCNS(=O)(=O)c2ccccc2)cc1F`, the normalized bacterial growth is 1.08.

`O=[N+]([O-])c1cc([As](=O)(O)O)ccc1O` gave a normalized bacterial growth of 0.66.

With `c1ccc2c(c1)[I+]c1ccccc1-2` [Diphenyleneiodonium chloride], the normalized bacterial growth turned out to be 0.0305.

`CC(=O)C1CCC2C3CCC4C[C@H](O)CCC4(C)C3C[C@H](O)C12C` (stereo partly drawn) ["DIHYDROXY (3alpha,12alpha)PREGNAN-20-ONE"]: the normalized bacterial growth was 1.18.

`CCN1C[C@]2(COC(=O)c3ccccc3N3C(=O)C[C@H](C)C3=O)CC[C@H](OC)[C@@]34[C@@H]5C[C@H]6[C@H](OC)[C@@H]5[C@](O)(C[C@@H]6OC)[C@](O)([C@@H](OC)[C@H]23)[C@@H]14` showed a normalized bacterial growth of 0.937.

On to `CC(C)CCCC1(C)C=Cc2c(O)c3c(c(CCC(C)C)c2O1)OC12C(CC4CC1C(C)(C)OC2(CCC(C)C(=O)O)C4O)C3=O` (configuration not stated), for which the normalized bacterial growth turned out to be 0.585.

In turn, `COc1ccc2c(c[n+](C)c3c4cc5c(cc4ccc23)OCO5)c1OC` [Chelerythrine chloride] registered a normalized bacterial growth of 0.249.

Compound `COc1ccc2c(c[n+](C)c3c4cc5c(cc4ccc23)OCO5)c1OC` returned a normalized bacterial growth of 0.873.

With `CNc1ccc2oc(C[C@H]3O[C@@]4(CC[C@H]3C)O[C@H]([C@H](C)C(=O)c3ccc[nH]3)[C@H](C)C[C@H]4C)nc2c1C(=O)O`, the normalized bacterial growth came out at 0.656.

As to `CNc1ccc2oc(C[C@H]3O[C@@]4(CC[C@H]3C)O[C@H]([C@H](C)C(=O)c3ccc[nH]3)[C@H](C)C[C@H]4C)nc2c1C(=O)O` [Calcimycin], the normalized bacterial growth was 0.205.

As to `C[C@]12C=CC(=O)C=C1CC[C@@H]1[C@@H]2CC[C@]2(C)C(=O)CC[C@@H]12`, the normalized bacterial growth was 0.962.

`CCN1C[C@]2(COC)[C@H](O)C[C@H](OC)[C@@]34[C@@H]5C[C@@]6(O)[C@H](OC(=O)c7ccccc7)[C@@H]5[C@@](OC(C)=O)([C@@H]([C@H](OC)[C@H]23)[C@@H]14)[C@@H](O)[C@@H]6OC` [Aconitine] gave a normalized bacterial growth of 0.894.

`CCN1C[C@]2(COC)[C@H](O)C[C@H](OC)[C@@]34[C@@H]5C[C@@]6(O)[C@H](OC(=O)c7ccccc7)[C@@H]5[C@@](OC(C)=O)([C@@H]([C@H](OC)[C@H]23)[C@@H]14)[C@@H](O)[C@@H]6OC` displayed a normalized bacterial growth of 1.02 ± 0.08.

As for `CC(=O)CC1CCCCN1` (configuration not stated), the normalized bacterial growth was found to be 1.06.

Take `CCN1C[C@]2(OC(=O)c3ccccc3NC(C)=O)CC[C@H](OC)[C@@]34[C@@H]2C[C@@H]([C@@H]13)[C@@]1(O)C[C@H](OC)[C@H]2C[C@@H]4[C@]1(O)[C@H]2OC`: the normalized bacterial growth is 1.29 ± 0.063.

On to `CC[C@@]1(O)C[C@H](O[C@H]2C[C@H](N(C)C)[C@H](O)[C@H](C)O2)c2c(cc3c(c2O)C(=O)c2c(O)ccc(O)c2C3=O)[C@H]1C(=O)OC`, for which the normalized bacterial growth is 0.864.

In turn, `C[C@H]1O[C@@H](C[N+](C)(C)C)CS1` had a normalized bacterial growth of 1.08.

`Cc1nccc2c1[nH]c1ccccc12` [Harmane hydrochloride]: the normalized bacterial growth came to 0.794.

The compound `CCCN1CCc2cccc3c2[C@H]1Cc1ccc(O)c(O)c1-3` [R(-)-Propylnorapomorphine hydrochloride] registered a normalized bacterial growth of 0.702.

For the compound `CCCN(CCC)C1CCc2cccc(O)c2C1` (configuration not stated) [()-8-Hydroxy-DPAT hydrobromide], the normalized bacterial growth came out at 1.03.

The compound `C=C1[C@H]2C[C@@]3([C@@H]1O)[C@@H](CC2=O)[C@]12[C@@H]4C[C@H]3[C@H]1N(CC)C[C@]4(C)CC[C@@H]2O` came in with a normalized bacterial growth of 1.12.

Consider `c1cncc(C2=NCCC2)c1`, for which the normalized bacterial growth is 1.19.

`C=CCc1cc(OC)c2c(c1)OCO2` returned a normalized bacterial growth of 1.15.

`COc1ccc(C(=O)OC2CC3CCC(C2)N3C)cc1OC` (configuration not stated) showed a normalized bacterial growth of 0.944.

Regarding `C[N+]1([O-])[C@@H]2C[C@@H](OC(=O)[C@H](CO)c3ccccc3)C[C@H]1[C@@H]1O[C@@H]12` (some centres not stated) [Scopolamin-N-oxide hydrobromide], the normalized bacterial growth stood at 1.03.

Take `O[C@@H]1CCCC[C@H]1N1CCC(c2ccccc2)CC1` [L(-)-vesamicol hydrochloride]: the normalized bacterial growth is 0.838.

Compound `O=C1CCCN1CC#CCN1CCCC1` [Oxotremorine sesquifumarate salt] registered a normalized bacterial growth of 1.06.

In turn, `O=C1CCCN1CC#CCN1CCCC1` had a normalized bacterial growth of 1.21.

Turning to `COC1=CC(=O)O[C@@H](CCc2ccc3c(c2)OCO3)C1`, the normalized bacterial growth was 0.883.

The compound `CO[C@@H]1C[C@@H](C[C@H]2CC[C@H](C)[C@H]([C@@H](C)C(=O)O)O2)O[C@]2(O[C@](C)([C@H]3CC[C@@](C)([C@@H]4O[C@@H]([C@H]5O[C@@](O)(CO)[C@H](C)C[C@@H]5C)C[C@@H]4C)O3)C[C@H]2C)[C@@H]1C` registered a normalized bacterial growth of 1.18.

With `Oc1cc(Cl)ccc1Oc1ccc(Cl)cc1Cl`, the normalized bacterial growth was found to be 0.072.

Compound `CC1=C2[C@H]3OC(=O)[C@@H](C)[C@@H]3CC[C@@]2(C)C=CC1=O` gave a normalized bacterial growth of 1.18.

`OCC(O)Cc1ccc2c(c1)OCO2` (configuration not stated) yielded a normalized bacterial growth of 1.03.

In turn, `C/C=C1\C[C@@H](C)[C@](O)(CO)C(=O)OCC2=CCN3CC[C@@H](OC1=O)[C@@H]23` registered a normalized bacterial growth of 1.08.

Consider `c1ccc(C2(c3ccccc3)CC2C2=NCCN2)cc1` (configuration not stated) [Cibenzoline succinate], for which the normalized bacterial growth turned out to be 0.975.

Take `CCCN(CCC)C1CCc2ccc(O)cc2C1` (configuration not stated) [()-7-Hydroxy-DPAT hydrobromide]: the normalized bacterial growth is 0.994.

Compound `CCCN(CCC)C1CCc2ccc(O)cc2C1` (stereo not drawn) [R-(+)-7-Hydroxy-DPAT hydrobromide] showed a normalized bacterial growth of 0.863.

Regarding `CCC(N)C(O)c1ccc(O)c(O)c1` (configuration not stated), the normalized bacterial growth came out at 1.04.

With `CN(N=O)c1cc(O)ccc1O` [Dephostatin], the normalized bacterial growth amounted to 0.763.
